Data as given in PubChem BioAssay AID504791 (Drosophila RNAi Screening Center, 2011).
Purpose: 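Genes of the fly required for silencing by miRNA, siRNA or endo-siRNA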 (primary screen). Cells: Drosophila S2-derived reporter cells. Knock-down reagent: long dsRNA against Drosophila genes, about 150-250 ng dsRNA per well (siRNA assay); about 80-120 ng (miRNA assay). Time to read-out: about 5 days (siRNA assay); about 4 days (miRNA assay). Conditions: copper sulfate induction of reporters: 25 µM (siRNA assay); 200 mM stated (miRNA assay), 1-2 days before reading. Measured: 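Dual luciferase assay: Renilla to firefly signal ratio in each well, scaled to the mean ratio of its plate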. Rule for the call: 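First-pass picks had plate-scaled ratios over 1.5 for the siRNA assay, over 1.6 for the miRNA assay, or under 0.6; two distinct dsRNAs had to score alike on retest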.
The deposit covers about 23,000 reagents; this is a random part of those that have a named target and a result. Over the whole deposit, 199 (0.86%) are marked active. 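Plate-scaled ratios behind the calls are not deposited; printed light signals are raw; many rows marked increased or decreased are still called inactive.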 Names joined by + are all predicted targets of the reagent. Further read-outs or replicates are left out here. Not given: the direction of the score.

no.	gene knocked down	amplicon	stable siRNA reporter change	miRNA reporter change	stable assay Renilla, run 1 (luminescence)	call
1	dyl	DRSC08466			7796	inactive
2	dyl	DRSC08467			5982	inactive
3	GABA-B-R2	DRSC14134			4572	inactive
4	ODA-Dnal1	DRSC07270			6550	inactive
5	SelR	DRSC16071			6930	inactive
6	Calx	DRSC13457			4555	inactive
7	Calx	DRSC13459			3404	inactive
8	Calx	DRSC16599			9093	inactive
9	Calx	DRSC21850			11407	inactive
10	CG14071	DRSC02374			7427	inactive
11	CG9593	DRSC16508			6620	inactive
12	CG9962	DRSC00739			7910	inactive
13	Nmda1	DRSC07479			7774	inactive
14	Cht6	DRSC18001			4459	inactive
15	Cht6	DRSC18002			5176	inactive
16	Cht6	DRSC18253			4299	inactive
17	Cht6	DRSC23211			3899	inactive
18	Coq5	DRSC19849			3544	inactive
19	Coq5	DRSC21371			8874	inactive
20	Sdc	DRSC04654			5098	inactive
21	CG31954	DRSC00580			15256	inactive
22	Graf	DRSC20131			6798	inactive
23	CG30103	DRSC06894			6359	inactive
24	Bili	DRSC14405		reporter ratio lowered past the hit cutoff	7438	active
25	Drep4	DRSC03408			7687	inactive
26	dsx	DRSC12649			5811	inactive
27	dsx	DRSC16934			4627	inactive
28	dsx	DRSC21495			7414	inactive
29	Men-b	DRSC16736			6303	inactive
30	alc	DRSC07062			6495	inactive
31	alc	DRSC21464			10400	inactive
32	alc	DRSC23316			4712	inactive
33	RalGPS	DRSC06941			9984	inactive
34	ppk21	DRSC14466			6356	inactive
35	CG5103	DRSC10481			6831	inactive
36	Ts	DRSC00795			7827	inactive
37	Ts	DRSC22168			8418	inactive
38	CG32756	DRSC22505			3507	inactive
39	CG32756	DRSC23271			2935	inactive
40	CG32712	DRSC17820			9282	inactive
41	CG11414	DRSC04110			1.34e5	inactive
42	CG12547	DRSC07759			5563	inactive
43	Hmg-2	DRSC04554			29059	inactive
44	unc80	DRSC15329		reporter ratio raised past the hit cutoff	6982	inactive
45	CG5112	DRSC15718	reporter ratio raised past the hit cutoff		17123	inactive
46	CG12551 (retired record)	DRSC04857			5698	inactive
47	CG12551 (retired record)	DRSC04864			5299	inactive
48	eIF4E6	DRSC14853			6830	inactive
49	CG3081	DRSC18571			5892	inactive

Quoted from above (8 entries):
no.	gene knocked down	amplicon	stable siRNA reporter change	miRNA reporter change	stable assay Renilla, run 1 (luminescence)	call
12	CG9962	DRSC00739			7910	inactive
13	Nmda1	DRSC07479			7774	inactive
14	Cht6	DRSC18001			4459	inactive
15	Cht6	DRSC18002			5176	inactive
16	Cht6	DRSC18253			4299	inactive
17	Cht6	DRSC23211			3899	inactive
18	Coq5	DRSC19849			3544	inactive
19	Coq5	DRSC21371			8874	inactive

More records follow:
no.	gene knocked down	amplicon	stable siRNA reporter change	miRNA reporter change	stable assay Renilla, run 1 (luminescence)	call
50	CG5938	DRSC15923			7119	inactive
51	Fili	DRSC03907			5112	inactive
52	Fili	DRSC04132			6403	inactive
53	Fili	DRSC04445			6500	inactive
54	Arp8	DRSC20059			7504	inactive
55	TpnC47D	DRSC07564			5947	inactive
56	CG13029	DRSC09909			6670	inactive
57	CG32053	DRSC10683			8515	inactive
58	betaTub65B	DRSC11393			6223	inactive
59	CG32985	DRSC02634			8204	inactive
60	Kr-h1	DRSC00908			4083	inactive
61	Kr-h1	DRSC03355			1.49e5	inactive
62	Pxd	DRSC16805			8186	inactive
63	gbb	DRSC04687			6062	inactive
64	CG34276	DRSC15811			8375	inactive
65	shot	DRSC05459			6351	inactive
66	shot	DRSC05460			5795	inactive
67	shot	DRSC07682			7737	inactive
68	CG15394	DRSC00408			7139	inactive
69	Ist1	DRSC09697			7829	inactive
70	CG13627	DRSC14629			7062	inactive
71	CG42264	DRSC18074			5618	inactive
72	CG42264	DRSC18075			6695	inactive
73	lncRNA:CR30009	DRSC22952			3639	inactive
74	Jig	DRSC14974			6695	inactive
75	CG33268	DRSC10143			5396	inactive
76	Eno	DRSC00750			6682	inactive
77	CG32579	DRSC19872			4735	inactive
78	CG10809	DRSC09802			5851	inactive
79	CG10799	DRSC06002			5963	inactive
80	Coq4 + frc	DRSC10381			8179	inactive
81	Coq4 + frc	DRSC10382			7526	inactive
82	CR31427	DRSC22675			5108	inactive
83	Best1	DRSC16909			3619	inactive
